Results from the supplement of paper PMC12067093, “Discovery and optimisation of a covalent ligand for TRIM25 and its application to targeted protein ubiquitination” (Chemical Science, 2025).
The other results are listed elsewhere or left out.

Protein sequences, listed by entry. Tags and fused reporters are not part of them. Lines headed by an entry give the natural chain unless they say otherwise; changes in a name come on top.
UniProt Q9NRX1: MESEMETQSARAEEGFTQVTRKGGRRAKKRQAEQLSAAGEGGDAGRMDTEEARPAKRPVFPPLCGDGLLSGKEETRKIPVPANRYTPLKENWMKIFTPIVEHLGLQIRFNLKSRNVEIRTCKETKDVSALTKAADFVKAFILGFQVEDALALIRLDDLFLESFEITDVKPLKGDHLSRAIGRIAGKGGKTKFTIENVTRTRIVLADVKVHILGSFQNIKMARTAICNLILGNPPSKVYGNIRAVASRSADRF
UniProt O60331: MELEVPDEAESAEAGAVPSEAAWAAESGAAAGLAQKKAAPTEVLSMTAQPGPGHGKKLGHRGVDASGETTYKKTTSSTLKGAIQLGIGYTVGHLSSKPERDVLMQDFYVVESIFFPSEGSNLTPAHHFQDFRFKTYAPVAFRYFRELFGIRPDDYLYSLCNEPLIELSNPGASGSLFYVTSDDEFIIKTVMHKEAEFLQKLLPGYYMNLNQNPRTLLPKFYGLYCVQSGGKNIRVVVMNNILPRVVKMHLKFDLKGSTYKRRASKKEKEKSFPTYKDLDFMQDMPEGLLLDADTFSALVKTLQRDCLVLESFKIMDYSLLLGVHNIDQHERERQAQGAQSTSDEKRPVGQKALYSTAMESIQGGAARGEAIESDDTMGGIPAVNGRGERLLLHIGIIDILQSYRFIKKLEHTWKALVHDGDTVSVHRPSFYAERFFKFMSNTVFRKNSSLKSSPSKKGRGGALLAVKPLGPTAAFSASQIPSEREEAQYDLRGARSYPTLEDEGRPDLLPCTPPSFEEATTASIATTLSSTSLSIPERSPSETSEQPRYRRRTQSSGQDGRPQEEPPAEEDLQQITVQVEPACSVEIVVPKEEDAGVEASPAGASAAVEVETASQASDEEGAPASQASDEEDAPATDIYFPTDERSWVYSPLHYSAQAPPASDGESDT
UniProt Q8IYS1: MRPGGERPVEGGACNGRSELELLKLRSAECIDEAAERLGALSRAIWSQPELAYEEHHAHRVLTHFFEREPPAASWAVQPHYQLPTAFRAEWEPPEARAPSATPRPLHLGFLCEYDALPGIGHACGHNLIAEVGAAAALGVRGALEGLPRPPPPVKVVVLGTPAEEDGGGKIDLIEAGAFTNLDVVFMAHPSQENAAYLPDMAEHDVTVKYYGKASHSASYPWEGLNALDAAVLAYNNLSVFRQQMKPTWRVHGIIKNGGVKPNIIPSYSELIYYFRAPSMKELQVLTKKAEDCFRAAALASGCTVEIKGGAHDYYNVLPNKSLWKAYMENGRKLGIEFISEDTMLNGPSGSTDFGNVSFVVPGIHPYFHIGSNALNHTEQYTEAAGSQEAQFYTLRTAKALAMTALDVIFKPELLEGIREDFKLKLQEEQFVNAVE
UniProt Q9Y2I7: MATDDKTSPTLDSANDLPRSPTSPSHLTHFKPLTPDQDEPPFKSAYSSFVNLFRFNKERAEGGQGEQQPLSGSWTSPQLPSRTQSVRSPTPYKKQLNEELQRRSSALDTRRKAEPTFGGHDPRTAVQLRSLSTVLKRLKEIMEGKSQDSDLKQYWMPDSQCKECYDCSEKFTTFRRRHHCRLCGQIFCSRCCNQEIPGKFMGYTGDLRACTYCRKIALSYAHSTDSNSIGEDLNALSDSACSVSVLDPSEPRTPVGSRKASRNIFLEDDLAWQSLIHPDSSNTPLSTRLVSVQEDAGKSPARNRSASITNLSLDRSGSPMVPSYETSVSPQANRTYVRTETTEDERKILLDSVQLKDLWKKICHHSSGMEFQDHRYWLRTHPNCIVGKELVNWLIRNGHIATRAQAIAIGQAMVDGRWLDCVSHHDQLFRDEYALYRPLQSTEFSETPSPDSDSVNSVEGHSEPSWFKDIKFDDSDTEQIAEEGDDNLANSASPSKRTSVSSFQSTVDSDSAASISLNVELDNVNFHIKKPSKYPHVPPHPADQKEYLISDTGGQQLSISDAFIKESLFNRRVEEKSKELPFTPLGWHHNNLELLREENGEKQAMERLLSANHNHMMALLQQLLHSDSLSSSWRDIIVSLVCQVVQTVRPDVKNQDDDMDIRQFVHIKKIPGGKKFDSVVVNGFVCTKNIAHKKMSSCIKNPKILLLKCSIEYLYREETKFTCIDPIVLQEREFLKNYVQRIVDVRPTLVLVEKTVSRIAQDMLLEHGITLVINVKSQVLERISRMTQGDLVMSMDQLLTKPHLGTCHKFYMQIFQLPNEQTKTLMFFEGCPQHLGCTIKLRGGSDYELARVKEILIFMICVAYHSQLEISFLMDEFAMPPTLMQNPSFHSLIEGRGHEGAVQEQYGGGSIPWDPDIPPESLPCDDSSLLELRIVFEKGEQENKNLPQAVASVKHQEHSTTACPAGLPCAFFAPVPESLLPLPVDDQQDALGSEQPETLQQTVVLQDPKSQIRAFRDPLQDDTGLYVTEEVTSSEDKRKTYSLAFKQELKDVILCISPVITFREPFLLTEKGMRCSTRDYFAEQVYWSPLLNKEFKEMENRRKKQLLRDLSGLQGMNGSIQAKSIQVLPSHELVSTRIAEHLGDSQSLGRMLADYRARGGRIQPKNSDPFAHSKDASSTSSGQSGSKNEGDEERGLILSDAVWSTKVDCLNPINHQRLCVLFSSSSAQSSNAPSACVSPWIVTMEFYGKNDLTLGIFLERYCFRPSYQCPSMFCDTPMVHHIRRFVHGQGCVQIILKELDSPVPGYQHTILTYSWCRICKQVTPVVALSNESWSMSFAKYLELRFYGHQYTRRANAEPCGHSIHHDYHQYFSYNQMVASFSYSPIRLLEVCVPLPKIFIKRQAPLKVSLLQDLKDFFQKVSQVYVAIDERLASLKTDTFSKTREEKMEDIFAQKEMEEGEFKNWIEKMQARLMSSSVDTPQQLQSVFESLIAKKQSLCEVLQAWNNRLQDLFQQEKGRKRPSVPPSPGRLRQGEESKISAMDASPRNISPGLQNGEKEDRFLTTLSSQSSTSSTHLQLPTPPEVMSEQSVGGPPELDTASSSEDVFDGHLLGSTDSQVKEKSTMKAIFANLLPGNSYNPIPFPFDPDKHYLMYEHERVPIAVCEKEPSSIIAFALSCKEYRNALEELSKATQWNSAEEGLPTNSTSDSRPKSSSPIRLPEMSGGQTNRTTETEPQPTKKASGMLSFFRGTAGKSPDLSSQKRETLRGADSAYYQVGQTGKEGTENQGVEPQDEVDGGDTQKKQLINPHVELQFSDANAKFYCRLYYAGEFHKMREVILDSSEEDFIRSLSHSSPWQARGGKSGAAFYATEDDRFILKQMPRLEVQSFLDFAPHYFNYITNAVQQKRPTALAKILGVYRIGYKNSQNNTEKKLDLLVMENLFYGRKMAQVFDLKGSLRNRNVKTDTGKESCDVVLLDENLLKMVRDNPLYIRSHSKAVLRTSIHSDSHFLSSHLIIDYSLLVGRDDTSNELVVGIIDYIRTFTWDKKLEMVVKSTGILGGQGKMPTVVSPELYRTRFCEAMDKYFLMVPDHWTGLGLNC
UniProt O60486: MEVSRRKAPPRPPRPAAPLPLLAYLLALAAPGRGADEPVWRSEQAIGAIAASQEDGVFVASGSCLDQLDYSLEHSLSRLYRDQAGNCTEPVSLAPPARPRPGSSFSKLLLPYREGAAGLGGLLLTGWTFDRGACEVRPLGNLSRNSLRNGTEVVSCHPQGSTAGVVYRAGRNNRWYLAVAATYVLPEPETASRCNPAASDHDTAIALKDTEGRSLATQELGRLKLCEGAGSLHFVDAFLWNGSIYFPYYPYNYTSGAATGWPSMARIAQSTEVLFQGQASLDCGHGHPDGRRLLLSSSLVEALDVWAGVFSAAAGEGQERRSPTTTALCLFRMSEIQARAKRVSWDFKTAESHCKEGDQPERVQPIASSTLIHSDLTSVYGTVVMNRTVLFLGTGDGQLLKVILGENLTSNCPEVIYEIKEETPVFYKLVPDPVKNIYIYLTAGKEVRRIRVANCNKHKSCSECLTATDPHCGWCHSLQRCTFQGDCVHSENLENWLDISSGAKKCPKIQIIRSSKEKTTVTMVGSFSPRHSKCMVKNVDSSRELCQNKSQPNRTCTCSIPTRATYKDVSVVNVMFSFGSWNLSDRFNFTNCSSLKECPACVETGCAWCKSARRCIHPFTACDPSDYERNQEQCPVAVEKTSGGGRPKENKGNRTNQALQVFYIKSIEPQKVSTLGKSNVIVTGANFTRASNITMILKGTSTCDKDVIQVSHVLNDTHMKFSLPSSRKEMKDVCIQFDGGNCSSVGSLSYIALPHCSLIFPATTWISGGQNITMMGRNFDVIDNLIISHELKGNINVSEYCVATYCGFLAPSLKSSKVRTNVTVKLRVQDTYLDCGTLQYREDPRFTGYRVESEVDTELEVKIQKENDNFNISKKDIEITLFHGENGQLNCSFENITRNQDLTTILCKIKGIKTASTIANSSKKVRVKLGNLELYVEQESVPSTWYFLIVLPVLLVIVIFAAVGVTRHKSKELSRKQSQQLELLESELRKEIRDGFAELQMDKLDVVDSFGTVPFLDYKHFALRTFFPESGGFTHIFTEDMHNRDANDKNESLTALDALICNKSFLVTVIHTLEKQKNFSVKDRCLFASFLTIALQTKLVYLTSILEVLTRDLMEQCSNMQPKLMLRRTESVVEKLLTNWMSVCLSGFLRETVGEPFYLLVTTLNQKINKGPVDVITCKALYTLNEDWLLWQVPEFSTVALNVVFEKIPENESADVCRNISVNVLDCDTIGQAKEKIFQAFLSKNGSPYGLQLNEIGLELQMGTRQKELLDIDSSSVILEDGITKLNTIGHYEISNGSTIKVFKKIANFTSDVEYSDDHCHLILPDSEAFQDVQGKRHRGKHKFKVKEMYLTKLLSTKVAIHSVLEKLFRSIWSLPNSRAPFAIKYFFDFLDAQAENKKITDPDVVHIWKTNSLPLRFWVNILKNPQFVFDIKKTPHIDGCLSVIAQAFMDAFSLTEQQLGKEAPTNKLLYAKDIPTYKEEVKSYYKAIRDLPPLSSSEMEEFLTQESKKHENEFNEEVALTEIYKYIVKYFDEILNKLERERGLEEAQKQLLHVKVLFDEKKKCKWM
UniProt Q9GZP4: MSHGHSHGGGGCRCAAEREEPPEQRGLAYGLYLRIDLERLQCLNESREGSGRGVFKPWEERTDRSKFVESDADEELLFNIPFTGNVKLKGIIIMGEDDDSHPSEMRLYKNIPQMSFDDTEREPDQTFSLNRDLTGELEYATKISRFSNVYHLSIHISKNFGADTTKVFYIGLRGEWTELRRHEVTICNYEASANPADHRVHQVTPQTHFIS
UniProt P14618, whole entry, looked up: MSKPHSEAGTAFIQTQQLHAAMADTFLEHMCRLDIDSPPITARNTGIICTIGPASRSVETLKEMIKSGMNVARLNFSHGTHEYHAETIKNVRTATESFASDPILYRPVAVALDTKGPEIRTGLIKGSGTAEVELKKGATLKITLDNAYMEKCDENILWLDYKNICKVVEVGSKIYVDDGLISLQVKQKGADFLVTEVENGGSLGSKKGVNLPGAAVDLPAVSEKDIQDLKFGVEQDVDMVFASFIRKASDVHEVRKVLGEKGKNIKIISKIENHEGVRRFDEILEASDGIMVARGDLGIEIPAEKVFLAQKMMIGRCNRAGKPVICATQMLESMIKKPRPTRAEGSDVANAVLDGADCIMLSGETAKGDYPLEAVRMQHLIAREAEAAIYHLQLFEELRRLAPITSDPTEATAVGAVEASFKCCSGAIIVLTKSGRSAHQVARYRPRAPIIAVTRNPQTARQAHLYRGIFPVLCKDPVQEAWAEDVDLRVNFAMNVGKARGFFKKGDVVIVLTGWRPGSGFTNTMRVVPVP
UniProt O15305: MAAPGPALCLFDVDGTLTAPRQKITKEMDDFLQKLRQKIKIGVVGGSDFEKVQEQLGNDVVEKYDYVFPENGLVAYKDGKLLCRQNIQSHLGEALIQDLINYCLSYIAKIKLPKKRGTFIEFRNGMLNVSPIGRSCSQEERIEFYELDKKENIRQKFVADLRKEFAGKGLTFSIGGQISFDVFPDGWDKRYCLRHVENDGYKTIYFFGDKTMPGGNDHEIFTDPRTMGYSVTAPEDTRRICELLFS
UniProt O75439: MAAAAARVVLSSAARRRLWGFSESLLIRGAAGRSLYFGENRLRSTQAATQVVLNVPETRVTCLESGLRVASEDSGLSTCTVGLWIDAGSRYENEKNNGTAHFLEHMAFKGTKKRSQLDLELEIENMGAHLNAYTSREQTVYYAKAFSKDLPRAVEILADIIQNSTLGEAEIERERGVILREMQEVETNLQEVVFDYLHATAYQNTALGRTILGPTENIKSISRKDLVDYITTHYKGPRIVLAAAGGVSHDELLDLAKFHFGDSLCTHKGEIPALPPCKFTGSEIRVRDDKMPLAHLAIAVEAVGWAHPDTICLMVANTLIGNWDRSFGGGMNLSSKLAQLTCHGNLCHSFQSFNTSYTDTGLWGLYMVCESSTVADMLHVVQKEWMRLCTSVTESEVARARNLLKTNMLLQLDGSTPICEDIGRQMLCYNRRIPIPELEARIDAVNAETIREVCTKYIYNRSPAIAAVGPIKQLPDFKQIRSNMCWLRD

compound: CC1Cc2ccccc2N1C(=O)C1CCCN(C1)C(=O)CCl (mixture of isomers) [TRIM25 ligand 11 (diastereomer mixture)]; experiment: probe-labelled cysteine peptide fold change vs DMSO (competition) (log2 fold change); higher = less target engagement (more negative = stronger competition); settings: 10 µM; THP-1; incubation time: 4 h
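Also: competitive chemoproteomic profiling in live THP-1 cells with an iodoacetamide desthiobiotin (IA-DTB) probe, comparing probe-labelled peptide intensities in compound-treated cells against DMSO-treated controls.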

| Target | probe-labelled cysteine peptide fold change |
| --- | --- |
| PNO1_Q9NRX1_226_TAICNLILGNPPSK (UniProt Q9NRX1) | 0.191 |
| PIK3CG_P48736_817_CADPTALSNETIGIIFK (UniProt P48736) | 0.0459 |
| PIP5K1C_O60331_306_DCLVLESFK (UniProt O60331) | 0.0441 |
| PINX1_Q96BK5_94_NNHLGLGATINNEDNWIAHQDDFNQLLAELNTCHGQETTDSSDKK (UniProt Q96BK5) | 0.0197 |
| PIK3CD_O00329_90_RLCDVQPFLPVLR (UniProt O00329) | -0.062 |

same assay, conditions: 50 µM; THP-1; incubation time: 4 h

| Target | probe-labelled cysteine peptide fold change |
| --- | --- |
| PIK3R4_Q99570_955_EQCNAER (UniProt Q99570) | -0.105 |
| PIP5K1C_O60331_225_FYGLYCVQSGGK (UniProt O60331) | 0.2 |
| PITPNB_P48739_13_VVLPCSVQEYQVGQLYSVAEASK (UniProt P48739) | 0.151 |
| PM20D2_Q8IYS1_14_MRPGGERPVEGGACNGR (UniProt Q8IYS1) | -0.0287 |
| PIKFYVE_Q9Y2I7_421_WLDCVSHHDQLFR (UniProt Q9Y2I7) | 0.0474 |
| PLXNC1_O60486_1217_IPENESADVCR (UniProt O60486) | 0.204 |
| PITHD1_Q9GZP4_42_LQCLNESR (UniProt Q9GZP4) | 0.13 |
| PKM_P14618_152_CDENILWLDYK (UniProt P14618) | 0.0033 |
| PMM1_Q92871_145_SCTLEER (UniProt Q92871) | 0.196 |
| PMM2_O15305_9_AAPGPALCLFDVDGTLTAPR (UniProt O15305) | 0.167 |
| PMPCB_O75439_419_TNMLLQLDGSTPICEDIGR (UniProt O75439) | 0.0376 |

Single entries from the list:
Entry of PMPCB_O75439_419_TNMLLQLDGSTPICEDIGR (UniProt O75439) under probe-labelled cysteine peptide fold change: 0.0376
Entry of PITHD1_Q9GZP4_42_LQCLNESR (UniProt Q9GZP4) under probe-labelled cysteine peptide fold change: 0.13
